According to US20220218852A1, “NOVEL RADIOLABELLED CXCR4-TARGETING COMPOUNDS FOR DIAGNOSIS AND THERAPY” (PROVINCIAL HEALTH SERVICES AUTHORITY, priority 2019, published 2022):
At least one peptide structure holds a part that was inferred or is arguable (an end, a ring closure or a residue). Positions of bridges follow the written chain, without caps; N, C: chain ends. Non-standard residues stand in square brackets, D forms with d. Residues, ends and D or L forms follow the SMILES beside them. Groups on a side chain read outwards from the residue. *: point of attachment. X4 = O=C(O)CC[C@H](NC(=O)CN1CCN2CCN3CCN(CC1)CC(=O)[O][Lu]([O]C(=O)C2)[O]C(=O)C3)C(=O)N[C@@H](CCCCNC(=O)CNC(=O)CCCc1ccc(I)cc1)C(=O)*; DOTA(Ga) = O=C1CN2CCN3CCN(CC(=O)*)CCN(CC2)CC(=O)[O][Ga]([O]1)[O]C(=O)C3; 2Nal = N[C@@H](Cc1ccc2ccccc2c1)C(=O)O; Lys(iPr) = CC(C)NCCCC[C@H](N)C(=O)O; Aad = N[C@@H](CCCC(=O)O)C(=O)O

By UniProt entry, the sequences of proteins in these tests, tags left out.
UniProt P61073, whole entry: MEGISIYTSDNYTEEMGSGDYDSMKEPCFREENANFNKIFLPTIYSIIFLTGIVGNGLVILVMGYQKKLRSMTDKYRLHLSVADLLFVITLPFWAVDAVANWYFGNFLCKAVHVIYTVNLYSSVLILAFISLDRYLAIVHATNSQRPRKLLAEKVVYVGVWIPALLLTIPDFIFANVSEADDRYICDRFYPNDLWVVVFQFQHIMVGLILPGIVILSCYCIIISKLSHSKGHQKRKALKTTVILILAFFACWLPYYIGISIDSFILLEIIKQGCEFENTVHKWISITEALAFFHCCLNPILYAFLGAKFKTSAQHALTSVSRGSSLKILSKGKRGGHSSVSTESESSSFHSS

Molecular target: T1, CXCR4 (Homo sapiens, UniProt P61073)
T1 construct: expressed in transfected cells; host or cells: CHO:CXCR4 cells (gift from NIH); CHO:WT used as the control line
Test: Competition binding assay ([^125I]SDF-1α, CHO:CXCR4 cells)
Conditions: competitive binding vs [^125I]SDF-1α, read-out: IC50 (nM), binding affinity for CXCR4
Procedure: The binding affinities of nonlabelled peptides for CXCR4 were determined using a competition binding assay using the CHO:CXCR4 cells. Briefly, CHO:CXCR4 cells (200,000 cells/well) were plated in a 24-well BioCoat™ Poly-D-Lysine Multiwell Plates (Corning) the previous night. The next day, each well was incubated with RPMI-1640 medium (Life Technologies Corporations) supplemented with 20 mM HEPES and 2 mg/mL BSA, [^125I]SDF-1α (0.01 nM, Perkin Elmer) and competing non-radioactive ligands ([…]) and incubated for 1-1.5 hours at 27° C. with moderate shaking. After incubation, the cells were washed with ice-cold PBS twice, trypsinized and counted on a Perkin Elmer WIZARD 2480 gamma counter. IC50 values were determined by a nonlinear regression analysis to fit a logistic equation to the competition data using GraphPad Prism 7.

CC(C)NCCCC[C@@H]1NC(=O)[C@H](Cc2ccc(O)cc2)NC(=O)[C@H](Cc2ccccc2)NC(=O)CC[C@H](C(=O)N[C@@H](CCCCNC(C)C)C(=O)N[C@@H](CCCCNC(=O)[C@H](CCCC(=O)O)NC(=O)[C@H](CCCC(=O)O)NC(=O)[C@H](CCCC(=O)O)NC(=O)CN2CCN3CCN4CCN(CC2)CC(=O)[O][Ga]([O]C(=O)C3)[O]C(=O)C4)C(N)=O)NC(=O)CNC(=O)[C@H](Cc2ccc3ccccc3c2)NC(=O)[C@@H](CCCNC(=N)N)NC1=O [Ga-BL17] (FY[Lys(iPr)][dR][2Nal]G[dE][Lys(iPr)]K([Aad-Aad-Aad-DOTA(Ga)])-NH2; lactam N-7; C-terminus assumed) and CC(C)NCCCC[C@@H]1NC(=O)[C@H](Cc2ccc(O)cc2)NC(=O)[C@H](Cc2ccccc2)NC(=O)CC[C@H](C(=O)N[C@@H](CCCCNC(C)C)C(=O)N[C@@H](CCCCNC(=O)[C@@H](CC(=O)O)NC(=O)[C@@H](CC(=O)O)NC(=O)[C@@H](CC(=O)O)NC(=O)CN2CCN3CCN4CCN(CC2)CC(=O)[O][Ga]([O]C(=O)C3)[O]C(=O)C4)C(N)=O)NC(=O)CNC(=O)[C@H](Cc2ccc3ccccc3c2)NC(=O)[C@@H](CCCNC(=N)N)NC1=O [Ga-BL25] (FY[Lys(iPr)][dR][2Nal]G[dE][Lys(iPr)]K([dD-dD-dD-DOTA(Ga)])-NH2; lactam N-7; C-terminus assumed) are within error of each other in IC50: 13 ± 8.6 nM for the first, 21.3 ± 0.1 nM for the second.

With CC(C)NCCCC[C@@H]1NC(=O)[C@H](Cc2ccc(O)cc2)NC(=O)[C@H](Cc2ccccc2)NC(=O)CC[C@H](C(=O)N[C@@H](CCCCNC(C)C)C(=O)N[C@@H](CCCCNC(=O)[C@H](CCC(=O)O)NC(=O)[C@H](CCCCNC(=O)CNC(=O)CCCc2ccc(I)cc2)NC(=O)[C@H](CCC(=O)O)NC(=O)CN2CCN3CCN4CCN(CC2)CC(=O)[O][Lu]([O]C(=O)C3)[O]C(=O)C4)C(N)=O)NC(=O)CNC(=O)[C@H](Cc2ccc3ccccc3c2)NC(=O)[C@@H](CCCNC(=N)N)NC1=O [Lu-BL19] (FY[Lys(iPr)][dR][2Nal]G[dE][Lys(iPr)]K([Glu-X4])-NH2; lactam N-7; C-terminus assumed) the IC50 was 17.2 ± 8.5 nM.
